Results taken from PubChem BioAssay AID1487 (National Center for Advancing Translational Sciences (NCATS), 2009).
The list shows a part of the results. Further columns of the screen follow, without active or inactive calls. Compounds called inactive in the main read-out are mostly missing here. Potencies come from curve fits of mixed quality, noted in brackets.

Test: qHTS Assay for Modulators of Lamin A Splicing
Settings: HeLa LMNA splicing GFP/RFP minigene ratio, 48 h
Procedure, shortened: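 S3 HeLa cells stably expressing lamin A-EGFP splicing minigene plus DsRed2, 600 cells/well, 48 h compound exposure at 37C. Laser-scanning cytometry; analysed as GFP (500-530 nm)/RFP (575-640 nm) total intensity ratio; 0.5% DMSO vehicle.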

[1] = measured here: RFP viability control channel
[2] = measured here: GFP splicing reporter channel

| SMILES | AC50 [1] | AC50 [2] |
| --- | --- | --- |
| O=C(NCCc1ccccc1)/C(=C/c1ccco1)c1ccccc1 | 12.6 µM [rising, partial curve, poor fit] |  |
| CN1CCc2c(cc(O)c(O)c2Cl)C(c2cccc(Cl)c2)C1 (stereo not drawn) | 11.2 µM [falling, single point] | 35.5 µM [falling, single point] |
| N#C/C(=C\c1cccc([N+](=O)[O-])c1)c1nnc2n1CCCCC2 | 12.6 µM [rising, partial curve] |  |
| COc1ccc(Oc2c(Cl)cnn(-c3ccc(Cl)c(Cl)c3)c2=O)cc1 | 11.2 µM [falling, partial curve, poor fit] | 17.8 µM [falling, partial curve, poor fit] |
| CC(C)(C)CC(C)(C)NC(=O)Nc1cccc([N+](=O)[O-])c1 |  | 0.0794 µM [rising, full curve, poor fit] |
| Cc1ccccc1NC(=O)CCn1cnc2onc(-c3ccc(F)cc3)c2c1=O | 0.02 µM [falling, full curve] | 1.12 µM [falling, partial curve] |
| Cc1ccc(S(=O)(=O)/N=C2\C(=O)c3ccccc3C([O-])=C2n2cc[n+](CCC(C)C)c2)cc1 | 12.6 µM [falling, partial curve] | 11.2 µM [falling, partial curve] |
| O=c1ccc2c(o1)/C(=C/C=C(Cl)Cl)CCC2 | 15.8 µM [falling, partial curve, poor fit] |  |
| CCOc1ccc(NC(=O)CCn2cnc3onc(-c4ccc(F)cc4)c3c2=O)cc1 | 20 µM [falling, partial curve] | 35.5 µM [falling, single point] |
| COc1cc(OC)cc(C(=O)NC(=S)Nc2ccc(N3CCCC3)cc2)c1 | 0.891 µM [rising, full curve, poor fit] |  |
| COc1ccc(C2Nc3ccccc3C(=O)N2c2ccccc2)cc1Cn1cc([N+](=O)[O-])cn1 (stereo not drawn) | 31.6 µM [falling, single point] |  |
| COc1ccc2[nH]cc(CCNc3cc(-c4ccccc4C)ncn3)c2c1 |  | 11.2 µM [falling, partial curve, poor fit] |
| COc1ccccc1N1CCN(C(=O)c2cc3c(=O)n(Cc4ccco4)ccc3nc2C)CC1 | 0.0794 µM [falling, partial curve, poor fit] |  |
| Cc1ccc(NS(=O)(=O)c2c(C(=O)N3CCC(C)CC3)c(C)n(C)c2C)cc1Cl | 0.0794 µM [rising, full curve, poor fit] |  |
| COCCNC(=S)N(Cc1cc2cc(C)ccc2n2nnnc12)C1CCCC1 | 0.126 µM [falling, single point] | 2.51 µM [falling, single point] |
| Cc1ccc(S(=O)(=O)NNC2CC(=O)N(c3ccc(Br)cc3)C2=O)cc1 (stereo not drawn) |  | 0.2 µM [falling, full curve, poor fit] |
| O=C1OCCN1C(=O)[C@H]1[C@H](c2ccc(F)cc2)C(c2ccc(F)cc2)=NN1c1ccccc1 | 10 µM [rising, partial curve] |  |
| CCOC(=O)Cn1c(=O)c2c(nc(N3CCCCC3)n2C)n(C)c1=O | 15.8 µM [rising, partial curve] |  |
| Cc1nc2ccc(NC(=O)c3cccc(S(=O)(=O)N(C)c4ccccc4)c3)cc2s1 | 12.6 µM [rising, partial curve] |  |
| Cc1ccc(N(CC(O)CN2CCOCC2)S(=O)(=O)c2ccc3ccccc3c2)cc1 (stereo not drawn) | 3.55 µM [falling, partial curve] | 3.16 µM [falling, partial curve] |
| CC1CCN(CCCNC(=O)c2cc(Sc3ccc(F)cc3)nc3ccccc23)CC1 | 0.00398 µM [falling, full curve, poor fit] | 0.002 µM [falling, full curve, poor fit] |
| COc1ccccc1N(C)S(=O)(=O)c1ccc(C(=O)OCC(=O)N(C(C)C)C(C)C)cc1 |  | 14.1 µM [rising, partial curve, poor fit] |
| CCc1ccc2c(c1)N(C[C@H](C)CN(C)C)c1ccccc1S2 |  | 35.5 µM [falling, single point] |
| CCc1c(C)sc(NC(=O)C2CC2c2ccccc2)c1C(N)=O (stereo not drawn) | 22.4 µM [falling, partial curve, poor fit] | 7.08 µM [falling, partial curve] |
| Nc1cccc(-c2cn3ccsc3n2)c1 | 0.891 µM [falling, full curve, poor fit] | 1.41 µM [falling, full curve] |
| Cc1cc(Br)c(NC(=O)CN(C)CCOc2ccccc2)c(Br)c1 | 1.12 µM [rising, full curve, poor fit] |  |
| COc1cccc2c(=O)cc(C)n(CC(=O)Nc3cccc(C)c3)c12 | 10 µM [rising, partial curve] |  |
| CC(=O)NC(C)C(=O)OCC(=O)c1ccc(-c2ccccc2)cc1 (stereo not drawn) | 17.8 µM [rising, partial curve] |  |

Whole records as entered above:
COc1ccc(Oc2c(Cl)cnn(-c3ccc(Cl)c(Cl)c3)c2=O)cc1 in the list: AC50 [1]: 11.2 µM [falling, partial curve, poor fit]; AC50 [2]: 17.8 µM [falling, partial curve, poor fit]
N#C/C(=C\c1cccc([N+](=O)[O-])c1)c1nnc2n1CCCCC2 in the list: AC50 [1]: 12.6 µM [rising, partial curve]
